PubChem BioAssay AID1224826 – NIAID | 2016
The deposit covers about 17,000 reagents; shown is an unselected part. About 1,110 of all reagents (6.6%) were called active. 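Active means lowered or raised reporter signal; replicate intensities are raw and not normalised per plate.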 Unmarked entries are inactive. Not all columns of the deposit are shown.

Screen: 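Genes that change LPS-induced Tnf promoter activity in mouse macrophages when knocked down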 (primary screen)
Cells: RAW264.7 G9 macrophages from mouse bearing reporters for p65 (GFP) and the Tnf promoter (mCherry)
Reagent: siRNA pool against mouse genes, 100 nM
Duration: 16 h of LPS stimulation, after 2 days of siRNA transfection
Conditions: bacterial lipopolysaccharide (Salmonella minnesota R595), 10 ng/ml
Measured: 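Nuclear mCherry signal of the Tnf promoter reporter measured by imaging after background removal, scaled to each plate median and turned into robust z-scores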
Reading the numbers: Tnf reporter robust z-score: higher = stronger Tnf promoter reporter signal after LPS
Hit rule: 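a well counts as active at a score of -1.3 or below (Tlr4 knock-down control median) or above 3 (raised signal); controls and wells holding fewer than 50 cells are excluded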
Meaning of the calls: active = Tnf reporter clearly lowered or raised; inactive = no clear change in Tnf reporter

With knock-down of Il4 (interleukin 4), the record shows Tnf reporter robust z-score 0.2; fewer than 50 cells in well enough cells in well.
Knock-down of Usb1 (U6 snRNA biogenesis 1) came out at: Tnf reporter robust z-score 0.32; fewer than 50 cells in well enough cells in well.
Depletion of Muc20 (mucin 20) resulted in: Tnf reporter robust z-score -0.59; fewer than 50 cells in well enough cells in well.
With knock-down of 9430097D07Rik (RIKEN cDNA 9430097D07 gene), the record shows Tnf reporter robust z-score 0.84; fewer than 50 cells in well enough cells in well.
For Arhgef26 (Rho guanine nucleotide exchange factor 26), the values are fewer than 50 cells in well fewer than 50 cells per well; well left out of calls.
Silencing of Copg1 (coatomer protein complex, subunit gamma 1) resulted in: Tnf reporter robust z-score -1.06; fewer than 50 cells in well enough cells in well.
Plac8 (placenta-specific 8) scored Tnf reporter robust z-score 2.63; fewer than 50 cells in well enough cells in well.
For Nudt3 (nudix hydrolase 3) the deposit lists Tnf reporter robust z-score 2.32; fewer than 50 cells in well enough cells in well.
Depletion of BC028528 (cDNA sequence BC028528) resulted in: Tnf reporter robust z-score 1.26; fewer than 50 cells in well enough cells in well.
Against Ufm1 (ubiquitin-fold modifier 1), the values are fewer than 50 cells in well fewer than 50 cells per well; well left out of calls.
With knock-down of Or1ab2 (olfactory receptor family 1 subfamily AB member 2) the results were Tnf reporter robust z-score -0.24; fewer than 50 cells in well enough cells in well.
For Bcas2 (BCAS2 pre-mRNA processing factor), the values are Tnf reporter robust z-score 0.26; fewer than 50 cells in well enough cells in well.

2 entries already listed, ordered by “Tnf reporter robust z-score”, highest first:
Usb1 (U6 snRNA biogenesis 1) — Tnf reporter robust z-score = 0.32; fewer than 50 cells in well = enough cells in well
Muc20 (mucin 20) — Tnf reporter robust z-score = -0.59; fewer than 50 cells in well = enough cells in well
